Laboratory results published in CN117069840A.
No constants are given. Whether binding was seen depends on the method and setting. Some entries that bind do so weakly or less than the wild type. Each block holds one binder with its values, some of them ahead of it.

Sequences of proteins named here, by UniProt entry; tags and fusion partners are left off. Residues count along the entry.
UniProt Q9HBE4, residues 30-162: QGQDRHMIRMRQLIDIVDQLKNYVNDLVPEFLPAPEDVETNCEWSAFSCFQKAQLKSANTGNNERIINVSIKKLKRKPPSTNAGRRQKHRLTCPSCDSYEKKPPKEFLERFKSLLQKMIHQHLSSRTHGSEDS

Tests used:
人IL-21蛋白 (human) [1] = molecular target: 人IL-21蛋白 (human) (UniProt Q9HBE4); assay: double-antibody sandwich ELISA paired with 3G6D7
人IL-21蛋白 (human) [2] = molecular target: 人IL-21蛋白 (human) (UniProt Q9HBE4); assay: indirect ELISA, IL-21 coated at 1 μg/mL, hybridoma supernatant
人IL-21蛋白 (human) [3] = molecular target: 人IL-21蛋白 (human) (UniProt Q9HBE4); assay: double-antibody sandwich ELISA paired with 13A6G6

binding (人IL-21蛋白 (human) [1]): binds | binding (人IL-21蛋白 (human) [2]): binds
B1: 抗体13A6G6 (antibody, V domains shown)
VH: EVKLEESGGGLVQPGGSTKLSCAASGFTFSDAWMNWVRQSPEKGLEWIAEIRTKTSNHAAYYAASVKGRFTISRDDSKSSVYLQMNSLRPEDTGIYYCTRFDYWGQGTTLTVSS
VL: DVQITQSPSYLAASPGETITINCRASKNINKHLAWYHDKPGKTNKLLIYSGSTLQSGTPSRFSGSGSGTDFTLTISSLEPEDFAVYYCQQHNEYPYTFGGGTKLAIK

binding (人IL-21蛋白 (human) [3]): binds | binding (人IL-21蛋白 (human) [2]): binds
B2: 抗体3G6D7 (antibody, V domains shown)
VH: EIQLQQSGPELVKPGASVKVSCKASGYGFTSYNMNWVKQSHGKSLEWIGYIDPYNGGSGYNQKFKGKATLTVDKSSSTAYMHLISLTSDDSAVYYCARGDYDGGYYGMDYWGQGTSVTVSS
VL: DILLTQSPAILSVSPGESVSFSCRASQSVGTSIHWFQQRTNGSPRLLIKYASESISGIPSRFSGSGSGTDFTLIINSVESEDIADYYCQQSNGWPFTFGSGTKLEIK
